Experiment [1] concerns the target TbEMC3-HA (Trypanosoma brucei) (UniProt Q38BC5). The experiment can be described thus: co-IP; lysates of T. brucei procyclic forms co-expressing one HA-tagged and one cMyc-tagged TbEMC; 10 mM Tris-HCl pH 7.4, 150 mM NaCl, 1 mM EDTA, 1% Triton X-100, 0.5% NP-40; anti-HA or anti-cMyc antibody with Protein G Dynabeads, 16 h; SDS-PAGE and immunoblot; both directions. (Immunoblotting shows a protein as a band on a membrane.)

By UniProt entry, the sequences of proteins in these tests, tags left out. Where a name states a change or a piece, a line headed by the entry shows the natural chain unless it says otherwise.
UniProt Q38BC5: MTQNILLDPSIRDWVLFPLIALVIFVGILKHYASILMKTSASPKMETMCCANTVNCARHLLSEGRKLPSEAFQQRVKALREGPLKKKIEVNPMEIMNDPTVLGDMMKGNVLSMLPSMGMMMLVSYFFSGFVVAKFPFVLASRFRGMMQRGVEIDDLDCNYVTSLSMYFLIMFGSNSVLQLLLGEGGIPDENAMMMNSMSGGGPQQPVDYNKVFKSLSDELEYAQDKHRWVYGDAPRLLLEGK
UniProt Q580G6: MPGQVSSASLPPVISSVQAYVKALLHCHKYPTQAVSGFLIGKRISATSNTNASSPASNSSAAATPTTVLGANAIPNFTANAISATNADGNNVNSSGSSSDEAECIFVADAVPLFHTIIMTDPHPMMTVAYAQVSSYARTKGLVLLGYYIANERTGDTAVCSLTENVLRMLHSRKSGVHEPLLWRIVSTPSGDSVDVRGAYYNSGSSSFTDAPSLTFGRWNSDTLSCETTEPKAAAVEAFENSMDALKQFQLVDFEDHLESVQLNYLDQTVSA

The target of experiment [2] is TbEMC8-cMyc (Trypanosoma brucei) (UniProt Q580G6). The description is as above.

These are yes or no findings as the source states them, for the method shown. In cells and extracts the contact can be indirect. A result given as binding can be weak or reduced; the word gives no strength.

Take TbEMC8-cMyc (from UniProt Q580G6): the binding result in experiment [1] is on record as “binds”.

As for TbEMC3-HA (from UniProt Q38BC5), the binding result in experiment [2] is on record as “binds weakly”.

Source of the values: article PMC9113592.
